# Several values for one entry are separate records, joined by “and”; a condition that tells them apart may be missing. Equal values may be shown once. This is one part of the list. Each value is one well over the wells without odorant, computed here; the data are noisy.
# Assays:
# Experiment in all cases: odorant receptor activation (CRE luciferase / Renilla) (fold of no-odor wells); higher = more activation
# Details in all cases: 100 µM
# OR5T2 clone 1428 = system: OR5T2 clone 1428
# OR5T3 clone 1343 = system: OR5T3 clone 1343
# OR5V1 clone 1070 = system: OR5V1 clone 1070
# OR6B1 R143C clone 1181 = system: OR6B1 R143C clone 1181
# OR6B2 R122C clone 1444 = system: OR6B2 R122C clone 1444
# OR6B3 R261W clone 1445 = system: OR6B3 R261W clone 1445
# [1] = system: OR6C1 V74I/C130Y/L161F/H165D/V246I/R291K clone 1442
# OR6C2 clone 1413 = system: OR6C2 clone 1413
# OR5T2 clone 1313 = system: OR5T2 clone 1313
# OR6A2 clone 1489 = system: OR6A2 clone 1489
SMILES,odorant receptor activation (OR5T2 clone 1428),odorant receptor activation (OR5T3 clone 1343),odorant receptor activation (OR5V1 clone 1070),odorant receptor activation (OR6B1 R143C clone 1181),odorant receptor activation (OR6B2 R122C clone 1444),odorant receptor activation (OR6B3 R261W clone 1445),odorant receptor activation [1],odorant receptor activation (OR6C2 clone 1413),odorant receptor activation (OR5T2 clone 1313),odorant receptor activation (OR6A2 clone 1489)
CC1COCc2cc3c(cc21)C(C)(C)C(C)C3(C)C (stereo not given) [galaxolide],2.75,6.01 and 5.53,2.08,0.663,1.99,2.31,2.62,4.44,–,–
CCCCCCC=O [heptaldehyde],0.947 and 0.767,0.462 and 1.32 and 1.05,2.2 and 1.96,0.492 and 0.936,0.752 and 0.792,0.856 and 1.18,1.06 and 0.671,0.961 and 0.812,–,–
CC(C)C=O [isobutyraldehyde],0.966,1.39 and 0.898,0.676,0.779,0.752,0.99,1.04,0.849,1.07 and 0.742,0.98 and 1.14
CC1=CCC(C(C)(C)O)CC1 (stereo not given) [terpineol],1.19,1.14,1.07,1.54,0.937,0.971,0.92,0.916,1.13,0.942
C=C(C)C1CC=CCC1 (stereo not given) [r-limonene],1.4 and 0.708,0.941 and 0.395,1.09 and 2.06,0.764 and 0.572,1.16 and 0.966,0.803 and 0.817,1.29 and 1.04,1.17 and 0.968,–,0.93 and 0.565 and 1.09
CCCCCCCC=O [octyl aldehyde],0.749,0.951,1.12,0.827,0.717,0.616,1.05,0.744,1.3,1.06
C=C(C)C1CC=C(C)C(=O)C1 (stereo not given) [r-carvone],0.991,0.769,0.939,0.835,1.15,0.812,1.03,1.35,0.727,0.912
CC1=NC(C)SC1C (stereo not given),1.01,1.3,1.97,1.6,0.982,0.968,1.1,1.24,0.698,1.56 and 0.986
CCCCO [1-butanol],1.01,1,2.35,0.933,0.957,0.83,1.15,1.17,0.89,1.25
COC(=O)c1ccccc1 [methyl benzoate],0.882,0.617,2.53,0.897,0.787,0.831,0.683,0.753,0.646,0.718 and 1.06
c1ccc(Oc2ccccc2)cc1 [diphenyl ether],1.24,1.01,0.987,1.03,1.07,1.2,1.05,1.08,0.988,1.06
C=CCc1ccc(OC(C)=O)c(OC)c1 [eugenol acetate],1.81,1.38,1.81,2.23,1.35,1.54,1.47,1.7,1.51,1.57
CC(=O)OC(C)(C)C1CC=C(C)CC1 (stereo not given) [terpinyl acetate],0.892,1.06,1.47,1.54,0.914,0.95,0.961,1.03,0.884,1.13
CCCCCCCCC=O [nonyl aldehyde],0.958,0.869,1.13,0.815,0.709,0.942,0.954,0.888,0.923,1.16

# Entries of single compounds from above. Order of values: odorant receptor activation (OR5T2 clone 1428) | odorant receptor activation (OR5T3 clone 1343) | odorant receptor activation (OR5V1 clone 1070) | odorant receptor activation (OR6B1 R143C clone 1181) | odorant receptor activation (OR6B2 R122C clone 1444) | odorant receptor activation (OR6B3 R261W clone 1445) | odorant receptor activation [1] | odorant receptor activation (OR6C2 clone 1413) | odorant receptor activation (OR5T2 clone 1313) | odorant receptor activation (OR6A2 clone 1489)
# `COC(=O)c1ccccc1` [methyl benzoate] in the list: 0.882 | 0.617 | 2.53 | 0.897 | 0.787 | 0.831 | 0.683 | 0.753 | 0.646 | 0.718 and 1.06
# `C=CCc1ccc(OC(C)=O)c(OC)c1` [eugenol acetate] in the list: 1.81 | 1.38 | 1.81 | 2.23 | 1.35 | 1.54 | 1.47 | 1.7 | 1.51 | 1.57

# Source: the odorant receptor screen of Mainland et al. (2015)
